Source: publication PMC12890168
Results are given in words; binding and its absence hold for the method and conditions named. Binding seen in cells or lysates may run through a third protein. Here binding means that the protein was enriched with, or labelled near, the bait; the list need not be complete.

Chains of the proteins cited; added tags and fusions are not shown.
UniProt Q16611: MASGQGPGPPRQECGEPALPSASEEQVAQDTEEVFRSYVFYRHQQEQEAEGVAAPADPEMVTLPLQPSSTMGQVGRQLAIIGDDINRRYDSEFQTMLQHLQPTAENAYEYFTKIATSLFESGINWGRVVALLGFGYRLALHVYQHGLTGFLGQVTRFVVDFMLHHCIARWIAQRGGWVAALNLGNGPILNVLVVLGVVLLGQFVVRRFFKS

Target: BAK (human (endogenous in HeLa)) (UniProt Q16611)
Experiment: affinity purification with mass spectrometry; SILAC-labelled HeLa cells, Ctr-infected 24 h or uninfected, with or without staurosporine and caspase inhibitor; 1% CHAPS lysates; BAK precipitated with BAK(aa23-38) or BAK(Ab-1) (active BAK) and protein G agarose; LC-MS/MS

B1: OmpA of Chlamydia trachomatis serovar L2, made by the bacteria during infection of HeLa cells (protein, UniProt P06597 23-394)
chain: LPVGNPAEPSLMIDGILWEGFGGDPCDPCTTWCDAISMRMGYYGDFVFDRVLQTDVNKEFQMGAKPTTATGNAAAPSTCTARENPAYGRHMQDAEMFTNAAYMALNIWDRFDVFCTLGATSGYLKGNSASFNLVGLFGDNENHATVSDSKLVPNMSLDQSVVELYTDTTFAWSAGARAALWECGCATLGASFQYAQSKPKVEELNVLCNAAEFTINKPKGYVGQEFPLDLKAGTDGVTGTKDASIDYHEWQASLALSYRLNMFTPYIGVKWSRASFDADTIRIAQPKSATTVFDVTTLNPTIAGAGDVKASAEGQLGDTMQIVSLQLNKMKSRKSCGIAVGTTIVDADKYAVTVETRLIDERAAHVNAQFRF
For B1, the binding was “binds”.
